Test [1] deals with hemagglutinin (HA)-tagged CHMP5 (UniProt Q9D7S9). Nature of the test: co-IP; anti-HA immunoprecipitation (isotype IgG as control) from fractionated CUTLL1 cells transduced with HA-tagged CHMP5, nuclear lysates; Protein G Dynabeads, antibody overnight at 4°C; Western blot. (In general: In western blotting, separated proteins are transferred to a membrane and probed.)
Test [2] addresses recombinant p300 (UniProt Q09472). The experiment in a line: co-IP; cell-free: recombinant p300-FLAG and CHMP5-His mixed 1:1 in TBS overnight at 4°C, anti-FLAG antibody and Protein G Dynabeads, washed with TBS + 0.2% NP-40; both purified.

Amino acid sequences for entries named in this document (tags omitted). Residues count along the entry.
UniProt Q9D7S9: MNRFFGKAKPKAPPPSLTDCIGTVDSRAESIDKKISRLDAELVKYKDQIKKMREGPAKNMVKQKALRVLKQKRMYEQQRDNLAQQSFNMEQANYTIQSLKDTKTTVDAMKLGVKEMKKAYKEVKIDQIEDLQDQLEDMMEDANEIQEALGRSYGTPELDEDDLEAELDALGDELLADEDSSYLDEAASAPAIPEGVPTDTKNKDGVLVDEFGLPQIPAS
UniProt Q09472: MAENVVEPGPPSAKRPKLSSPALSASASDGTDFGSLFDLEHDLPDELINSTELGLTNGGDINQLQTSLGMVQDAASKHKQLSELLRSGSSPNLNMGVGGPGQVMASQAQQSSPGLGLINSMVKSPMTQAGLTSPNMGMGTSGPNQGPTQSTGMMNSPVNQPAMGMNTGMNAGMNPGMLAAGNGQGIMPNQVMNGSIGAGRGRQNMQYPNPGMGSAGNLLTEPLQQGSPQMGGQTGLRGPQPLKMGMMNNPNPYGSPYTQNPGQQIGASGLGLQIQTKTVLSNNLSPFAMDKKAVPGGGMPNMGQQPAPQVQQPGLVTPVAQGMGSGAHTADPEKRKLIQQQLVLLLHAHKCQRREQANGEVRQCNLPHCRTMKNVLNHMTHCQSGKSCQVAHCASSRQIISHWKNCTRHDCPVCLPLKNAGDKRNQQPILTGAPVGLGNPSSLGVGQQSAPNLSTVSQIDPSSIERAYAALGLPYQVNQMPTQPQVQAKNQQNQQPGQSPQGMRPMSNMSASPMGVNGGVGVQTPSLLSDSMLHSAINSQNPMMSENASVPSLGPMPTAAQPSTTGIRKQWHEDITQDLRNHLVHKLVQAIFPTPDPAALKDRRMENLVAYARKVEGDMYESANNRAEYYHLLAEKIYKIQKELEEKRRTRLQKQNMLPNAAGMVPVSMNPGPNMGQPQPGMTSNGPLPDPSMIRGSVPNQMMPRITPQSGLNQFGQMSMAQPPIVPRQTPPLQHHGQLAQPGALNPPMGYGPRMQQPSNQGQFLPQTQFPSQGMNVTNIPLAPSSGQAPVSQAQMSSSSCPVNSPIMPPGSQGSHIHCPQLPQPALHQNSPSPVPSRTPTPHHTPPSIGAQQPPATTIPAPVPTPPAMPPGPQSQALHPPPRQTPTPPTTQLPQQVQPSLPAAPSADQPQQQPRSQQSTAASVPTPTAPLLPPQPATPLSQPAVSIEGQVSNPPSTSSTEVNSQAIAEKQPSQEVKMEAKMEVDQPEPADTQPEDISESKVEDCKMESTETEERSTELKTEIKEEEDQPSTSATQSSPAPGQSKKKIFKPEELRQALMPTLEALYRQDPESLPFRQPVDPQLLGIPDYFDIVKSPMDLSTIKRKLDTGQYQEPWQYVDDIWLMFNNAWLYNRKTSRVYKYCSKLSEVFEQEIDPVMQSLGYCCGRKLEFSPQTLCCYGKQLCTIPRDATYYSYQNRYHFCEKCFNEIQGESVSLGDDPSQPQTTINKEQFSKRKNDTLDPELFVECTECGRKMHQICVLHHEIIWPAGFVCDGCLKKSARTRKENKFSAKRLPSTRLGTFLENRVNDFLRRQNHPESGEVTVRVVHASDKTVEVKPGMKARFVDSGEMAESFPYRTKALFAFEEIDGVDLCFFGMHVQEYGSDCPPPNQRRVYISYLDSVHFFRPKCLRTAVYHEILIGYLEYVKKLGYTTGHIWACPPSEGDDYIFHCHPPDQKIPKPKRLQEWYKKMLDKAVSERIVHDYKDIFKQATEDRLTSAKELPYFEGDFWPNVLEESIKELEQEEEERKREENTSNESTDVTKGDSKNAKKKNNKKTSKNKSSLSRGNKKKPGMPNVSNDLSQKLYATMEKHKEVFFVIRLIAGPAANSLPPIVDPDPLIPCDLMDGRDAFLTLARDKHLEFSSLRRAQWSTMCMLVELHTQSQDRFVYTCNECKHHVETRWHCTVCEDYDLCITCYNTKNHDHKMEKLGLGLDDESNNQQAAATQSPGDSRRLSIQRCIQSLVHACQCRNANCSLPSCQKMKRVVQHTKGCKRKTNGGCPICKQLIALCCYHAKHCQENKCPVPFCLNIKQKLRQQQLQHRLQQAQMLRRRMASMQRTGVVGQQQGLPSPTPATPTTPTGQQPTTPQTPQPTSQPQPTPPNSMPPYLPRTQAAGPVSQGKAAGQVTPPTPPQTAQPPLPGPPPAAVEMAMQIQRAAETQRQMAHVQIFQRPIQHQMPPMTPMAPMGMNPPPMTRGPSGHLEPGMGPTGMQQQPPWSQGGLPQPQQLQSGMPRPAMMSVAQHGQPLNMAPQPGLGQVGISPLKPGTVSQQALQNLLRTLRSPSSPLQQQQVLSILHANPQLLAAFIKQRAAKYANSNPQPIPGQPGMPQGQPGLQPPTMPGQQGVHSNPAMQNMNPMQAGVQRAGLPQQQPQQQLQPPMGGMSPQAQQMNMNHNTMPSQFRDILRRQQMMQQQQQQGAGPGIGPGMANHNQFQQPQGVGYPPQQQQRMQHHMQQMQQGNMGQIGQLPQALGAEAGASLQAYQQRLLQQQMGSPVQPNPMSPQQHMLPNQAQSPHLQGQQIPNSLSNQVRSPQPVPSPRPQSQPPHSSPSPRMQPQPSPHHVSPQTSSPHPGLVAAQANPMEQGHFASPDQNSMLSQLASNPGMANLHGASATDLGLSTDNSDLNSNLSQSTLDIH
UniProt P01106: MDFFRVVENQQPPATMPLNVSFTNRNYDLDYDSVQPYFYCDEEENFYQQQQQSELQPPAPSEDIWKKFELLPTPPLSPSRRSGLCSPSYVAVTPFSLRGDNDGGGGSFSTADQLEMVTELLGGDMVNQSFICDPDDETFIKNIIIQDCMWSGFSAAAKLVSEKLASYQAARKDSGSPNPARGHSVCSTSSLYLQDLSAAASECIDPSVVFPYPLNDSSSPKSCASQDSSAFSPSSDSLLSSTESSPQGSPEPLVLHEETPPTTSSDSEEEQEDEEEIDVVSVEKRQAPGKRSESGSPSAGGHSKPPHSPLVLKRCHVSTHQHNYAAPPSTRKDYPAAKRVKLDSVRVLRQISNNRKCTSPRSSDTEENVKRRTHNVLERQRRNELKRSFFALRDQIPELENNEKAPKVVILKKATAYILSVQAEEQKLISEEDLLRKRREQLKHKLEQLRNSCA
UniProt P46531, residues 1754-2555: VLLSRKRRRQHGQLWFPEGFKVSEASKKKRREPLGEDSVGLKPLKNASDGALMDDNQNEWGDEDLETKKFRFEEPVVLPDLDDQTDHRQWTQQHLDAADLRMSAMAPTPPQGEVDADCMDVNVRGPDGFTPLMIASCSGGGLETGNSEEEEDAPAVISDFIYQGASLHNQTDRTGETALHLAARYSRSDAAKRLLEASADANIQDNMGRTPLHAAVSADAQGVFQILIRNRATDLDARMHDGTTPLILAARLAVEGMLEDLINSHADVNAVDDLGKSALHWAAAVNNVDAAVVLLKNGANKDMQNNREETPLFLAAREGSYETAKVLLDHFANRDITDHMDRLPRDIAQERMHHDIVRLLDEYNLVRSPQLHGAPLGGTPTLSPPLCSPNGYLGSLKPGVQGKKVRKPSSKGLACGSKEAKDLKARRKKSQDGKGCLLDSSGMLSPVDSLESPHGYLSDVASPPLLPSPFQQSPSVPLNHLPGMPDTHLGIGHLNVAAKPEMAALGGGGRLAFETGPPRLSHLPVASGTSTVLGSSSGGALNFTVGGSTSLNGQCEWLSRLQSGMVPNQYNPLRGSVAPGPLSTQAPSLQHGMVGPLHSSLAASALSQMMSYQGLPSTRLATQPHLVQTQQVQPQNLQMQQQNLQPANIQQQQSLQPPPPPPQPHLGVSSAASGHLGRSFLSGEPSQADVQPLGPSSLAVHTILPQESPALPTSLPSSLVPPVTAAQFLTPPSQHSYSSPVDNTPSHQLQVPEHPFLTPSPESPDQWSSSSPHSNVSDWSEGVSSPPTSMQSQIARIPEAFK
UniProt Q9NZZ3: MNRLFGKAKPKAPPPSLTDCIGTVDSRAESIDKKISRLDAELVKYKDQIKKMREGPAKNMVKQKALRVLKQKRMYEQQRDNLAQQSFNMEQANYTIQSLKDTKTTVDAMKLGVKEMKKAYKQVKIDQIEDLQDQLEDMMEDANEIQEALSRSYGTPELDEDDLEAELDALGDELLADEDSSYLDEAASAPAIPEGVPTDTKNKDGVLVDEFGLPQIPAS

No constants are given. Whether binding was seen depends on the method and setting. For some of these results: Binding seen in cells or lysates may run through a third protein. Some results given as binding are weak or reduced against the parent protein; the word gives no strength.

Turning to MYC (from UniProt P01106 1-454), in test [1], the binding entry was “no binding”.
On the same count and under the same terms, the value for “endogenous p300 (from UniProt Q09472 1-2414) (enzyme)” was “binds”; that for “intracellular NOTCH1 domain (ICN1) (from UniProt P46531 1754-2555) (domain or fragment)” was “no binding”.
Regarding “recombinant CHMP5 (from UniProt Q9NZZ3 1-219)”, the binding entry in test [2] was “binds”.

The values above are taken from paper doi:10.1101/2024.01.29.577409.
